Measured data: PubChem BioAssay AID1053208 (Peter MacCallum Cancer Centre, 2014)
This is one part, drawn at random, of about 17,000 reagents. Over the whole deposit, 788 (4.7%) were called active. 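Calls rest on z-score classes alone; an extra cut-off of viability at most 70% of control was not applied to them.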 Entries without a mark were called inactive. Some reagents were tested in more than one well and are listed for each. Further read-outs or replicates are left out here. No sequences are given here.

- Test: 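Find knock-downs that sensitise mouse osteosarcoma cells to doxorubicin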 (primary screen)
- System: mouse osteosarcoma cells, early-passage culture from an engineered mouse model of fibroblastic bone tumour
- Reagent: siRNA pool against mouse genes, 40 nM
- Timing: about 120 h (48 h before drug, then 72 h with drug)
- Challenge: doxorubicin 100 nM for 72 h, roughly 30-40% inhibitory dose
- Measurement: 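Viability read as ATP luminescence after 72 h of 100 nM doxorubicin or none, duplicate wells averaged, scaled to non-targeting siRNA, then expressed as robust z-scores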
- Scale: viability z-score with doxorubicin: higher = more viable cells under doxorubicin; viability z-score without drug: higher = more viable cells with knock-down alone
- Call rule: 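Called active if knock-down leaves viability unchanged without drug (z within -2 to 2) but lowers it with doxorubicin (z at or under -2)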

| gene symbol | combined z-score class | viability z-score with doxorubicin | viability z-score without drug |
| --- | --- | --- | --- |
| Fanca | low cell count with doxorubicin only (active) | -2.02 | 0.51 |
| Htra1 | no change with or without drug | 1.57 | 0.51 |
| Ogfod3 | no change with or without drug | -1.57 | -0.34 |
| Sacm1l | no change with or without drug | -0.9 | 0.17 |
| Sbds | high cell count without drug only | 1.01 | 2.19 |
| Or8g28 | low cell count without drug only | -1.57 | -2.87 |
| Ang | no change with or without drug | -0.45 | -0.17 |
| Tiprl | no change with or without drug | -0.45 | 1.18 |
| Stoml2 | no change with or without drug | -0.67 | -1.18 |
| Gin1 | no change with or without drug | 0 | 1.18 |
| Pmis2 | low cell count with doxorubicin only (active) | -2.36 | -0.51 |
| Calm4 | no change with or without drug | 0.34 | -0.17 |
| Fmnl3 | no change with or without drug | 0.45 | 1.01 |
| Utp20 | low cell count with and without drug | -2.47 | -2.19 |
| Dync1i1 | no change with or without drug | -0.79 | -0.17 |
| Rpusd2 | no change with or without drug | 0.9 | -0.34 |
| Adgrv1 | no change with or without drug | 0.67 | -1.18 |
| Capn7 | no change with or without drug | -0.56 | -1.18 |
| Tra2b | high cell count without drug only | 1.12 | 2.36 |
| Tra2b | no change with or without drug | 0.9 | 0.51 |

In a second layout: entries from further up
gene symbol | combined z-score class | viability z-score with doxorubicin | viability z-score without drug
Ang | no change with or without drug | -0.45 | -0.17
Tiprl | no change with or without drug | -0.45 | 1.18
